The data set has as its target T1, Fis (Escherichia coli) (UniProt P0A6R3).
T1 sequence (looked up, limits assumed): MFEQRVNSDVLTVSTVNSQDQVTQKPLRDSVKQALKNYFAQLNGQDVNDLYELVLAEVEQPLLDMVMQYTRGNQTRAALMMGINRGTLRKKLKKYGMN
In words: EMSA. As to conditions: Gel shift under standard conditions of ref 64, pH and temperature not given, recombinant protein, protein details: His-tag (pET21a), label: 5'-FITC on one primer, probe letters rebuilt from the primers and the genome. For orientation: Mobility shift assays separate free from complexed probe on a gel.

[1] abbreviates: number of Fis sites as reported previously.

Construct, isoform or probe ends are uncertain for at least one entry. Tags and fusion partners may be left off the protein sequences shown.

“GGAATTCAAAATGTTGACGCTCAAAGAATTAAACTTCGTAATGAATTACGTGTTCACTCTTGAGACTTGGTATTCATTTTTCGTCTTGCGACGTTAAGAATCCGTATCTTCGAGTGCCCACACAGATTGTCTGATAAATTGTTAAAGAGCAGTGCCGCTTCGCTTTTTCTCAGCGGCGCGGGGTGTGCATAATACGCCTTCCCGCTACAGAGTCAAGCATTTATTTTTGCTTTCTCTGCCGGAGTTCTCAGGAGAACCCCGCTGACCCGGCGGCGTGTTTGCCGTTGTTCCGTGTCAGTGGTGGCGCATTATAGGGAGTTATTCCGGCCTGACAAGAGGAAATTTAAAATAATTTTCTGACCGCGCATTTTTTATTCTTTATGCTTATTTCAGCGTCGGTTTGTCGGTTAAATGGGCGATTTCTCGGGCGAAATTCGCCACCTGCTCCCAATCGGTATAGACAACTTCTTTGCGCGTATCCGTTTCACCGCCTGACATCTTCATAATCAGCTTGATCATAAAACGGTCGTACCAGCGATAACGAGATCTTC (double strand) [rrnA promoter probe]”: under setting [1], the binding result is “binds”.

In the case of “GAAGATCTGATTCTGGCGCAGCGATTGCTCGCCGAACGGCCTGGTTGTTAGAACATGAAGCCCCGGATGCAAAATCTGCCGATGCGAATATTGCCTTTTGTATGGCAATGACGCCAGGAGCTGAACAATTATTGCCCGTTTTACAGCGTTACGGCTTCGAAACGCTCGAAAAACTGGCAGTTTTAGGCTGATTTGGTTGAATGTTGCGCGGTCAGAAAATTATTTTAAATTTCCTCTTGTCAGGCCGGAATAACTCCCTATAATGCGCCACCACTGACACGGAACAACGGCAAACACGCCGCCGGGTCAGCGGGGTTCTCCTGAGAACTCCGGCAGAGAAAGCAAAAATAAATGCTTGACTCTGTAGCGGGAAGGCGTATTATGCACACCCCGCGCCGCTGAGAAAAAGCGAAGCGGCACTGCTCTTTAACAATTTATCAGACAATCTGTGTGGGCACTCGAAGATACGGATTCTTAACGTCGCAAGACGAAAAATGAATACCAAGTCTCAAGAGTGAACACGTAATTCATTACGAAGTTTAATTCTTTGAGCGTCAACATTTTGAATTCC (double strand) [rrnB promoter probe]”, the binding result under setting [1] was “binds”.

On to “GGAATTCAAAAGTTTGATGCTCAAAGAATTAAACTTCGTAATGAATTACGTGTTCACTCTTGAGACTTGGTATTCATTTTTCGTCTTGCGACGTTAAGAATCCGTATCTTCGAGTGCCCACACAGATTGTCTGATAAATTGTTAAAGAGCAGTGCCGCTTCGCTTTTTCTCAGCGGCGCGGGGTGTGCATAATACGCCTTCCCGCTACAGAGTCAAGCATTTCTTTGCTTTTCTCTGTTGAGATTCTCAGGAGAACCCCGCCGACCCGGCGGCGTGTTTGCCGTTGTTCCGTGTCAGTGGTGGCGCATTATAGGGAGTTATTCCGGCCTGACAAGCGAAAAATATAAAAACTTTATCGTTCGCTCACTTTTCAGGCAAAACATCTTAAATATAGTCTTTTCCGTCTAACTTATAGACAAAAACGAGCCCCGAAGGGCTCGTTTTATCATTTACTGGACGGCGACAATCCGGTCTTCATTAACTTCCAGGCGAATCACTTTACCCGGAACCAATTCACCAGACAGTATTTGCTGTGCCAGCGGGTTTTCGATCTGCTGCAGATCTTC (double strand) [rrnG promoter probe]”, for which the binding result (more than 6 apparent sites, cooperative) was “binds”.

Take “GGAATTCAAAAGTTTGATGCTCAAAGAATTAAACTTTGTAATGAATTACGTGTTCACTCTTGAGACTTGGTATTCATTTTTCGTCTTGCGACGTTAAGAATCCGTATCTTCGAGTGCCCACACAGATTGTCTGATAAATTGTTAAAGAGCAGTTGCGACGCGGCTTTCAGCTCACTGTCGCGAGGTGGCGTATATTACGCTTTCCTCTTTCAGAGTCAACCCTGAATTTCAGGATTTTTCTCTTCAACCGAACCGGCTGTTTGTGTGAAGTGATTCACATCCGCCGTGTCGATGGAGGCGCATTATAGGGAGTCGGCTCAGGAAGACAAGCGGAAAAATGCATTTTTATTTCAACCGCTCATCTTTTAATCATTGTGCCGGTTTTTGCTGCTTTTTTATCGCTTGCGGCAGGTCTGCCAGGCTATTTAACACCCAATCCGCCGCGTTTTCTGCTTCAGGCGTAATAGGTTTACCCGTACGCACCAGCACTTTTGTTCCCACGTTCGCCGCAACCGCTGCCTGCAGATCAGATCTTC (double strand) [rrnH promoter probe]”: the binding result under setting [1] was “binds”.

As to “GGAATTCAAAAGTTTGATGCTCAAAGAATTAAACTTCGTAATGAATTACGTGTTCACTCTTGAGACTTGGTATTCATTTTTCGTCTTGCGACGTTAAGAATCCGTATCTTCGAGTGCCCACACAGATTGTCTGATAAATTGTTAAAGAGCAGTTGCGACGCGGCTTTCAGCTCACTGTCGCGAGGTGGCGTATATTACGCTTTCCTCTTTCAGAGTCAACCCTGAATTTCAGGATTTTTTTCTCTTCGTTGTTCCGACCATCCTGTGAAGTGTTTCACGTTGTCGTCTCAACGGAGGCGCATTATAGGGATCCCAATTTTTTGCACAAGTATTTTTTTGATCTTTTTTTCTGTTTGTTGTTTTTTCACCCTTTTTGCTGCAATCGCACACAAAACGGTGCTTTTTTGCATACTAAAAGACTTGCACAAGGCCAATAATGCCCCCAAAGTCATTAGTAAATCATTTATTGCTGAGGTAAGTATGTCTGATGTTTTACGCCCATACCGCGATCTTTTTCCACAAATCGGTCAGCGCGTAATGATCGAGATCTTC (double strand) [rrnD promoter probe]”, the binding result under setting [1] is recorded as “binds”.

“GAAGATCTGAAAGGTTTTTCTGTGCAGCTAACTGTTGTGCGCTTAAAGGCATTACTTATCTTCCTTTTTCTTTTTATTCCTCCTTAGTATGCCACCAGGAAGTGTGATTACGGTTGCAAAAACGGCAAATTGCTTGTTTTATGGCACATTAACGGGGCTTTTGCTGAAAAAATGCGCGGTCAGAAAATTATTTTAAATTTCCTCTTGTCAGGCCGGAATAACTCCCTATAATGCGCCACCACTGACACGGAACAACGGCAAACACGCCGCCGGGTCAGCGGGGTTCTCCTGAGAACTCCGGCAGAGAAAGCAAAAATAAATGCTTGACTCTGTAGCGGGAAAGCGTATTATGCACACCCCGCGCCGCTGAGAAAAAGCAAAGCGGCACTGCTCTTTAACAATTTATCAGACAATCTGTGTGGGCACTCGAAGATACGGATTCTTAACGTCGCAAGACGAAAAATGAATACCAAGTCTCAAGAGTGAACACGTAATTCATTACGAAGTTTAATTCTTTGAGCATCAAACTTTTGAATTCC (double strand) [rrnC promoter probe]”: the binding result under setting [1] is listed as “binds”.

As for “GGAATTCAAAAGTTTGATGCTCAAAGAATTAAACTTCGTAATGAATTACGTGTTCACTCTTGAGACTTGGTATTCATTTTTCGTCTTGCGACGTTAAGAATCCGTATCTTCGAGTGCCCACACAGATTGTCTGATAAATTGTTAAAGAGCAGTTGCGACGCGCTTTAGCGCACTGTCGCGAGGTGGCGTATATTACGCTTTCCTCTTTCAGAGTCAACCCTGAATTTCAGGATTTTTCTCTTCAACCGAACCGGCTGTTTGTGTGAAGTGATTCACATCCGCCGTGTCGATGGAGGCGCATTATAGGGAGTTCTCCGCAGGCCGCAATAGAAAAATTGCAGAAAAATGACTGACTGCTGCATTCCCCAGCAAAAGCCCGCTTTATACCTTTTTACGCACAGAGTTATCCACAATCATCAATGTAATTTCTGTATTTTGCCCACGGTAACCACAGTCAAAATTGTGATCACCATTGAAAGAGAAAAATTCGCGAGCGTTGCGCAAACGTTTTCGTTACAATGCGGGCGAAAAATAAGGATGCCCCGTTAGGGGCGTTAGCTGAGAGATCTTC (double strand) [rrnE promoter probe]”, the binding result (more than 8 apparent sites, cooperative) is on record as “binds”.

Source of the values: article PMC4696680.
